# Test results taken from publication PMC13247160.
# The chains behind the UniProt entries cited, without tags or fusion partners. Where a name states a change or a piece, a line headed by the entry shows the natural chain unless it says otherwise. Residues count along the entry.
# UniProt Q92905: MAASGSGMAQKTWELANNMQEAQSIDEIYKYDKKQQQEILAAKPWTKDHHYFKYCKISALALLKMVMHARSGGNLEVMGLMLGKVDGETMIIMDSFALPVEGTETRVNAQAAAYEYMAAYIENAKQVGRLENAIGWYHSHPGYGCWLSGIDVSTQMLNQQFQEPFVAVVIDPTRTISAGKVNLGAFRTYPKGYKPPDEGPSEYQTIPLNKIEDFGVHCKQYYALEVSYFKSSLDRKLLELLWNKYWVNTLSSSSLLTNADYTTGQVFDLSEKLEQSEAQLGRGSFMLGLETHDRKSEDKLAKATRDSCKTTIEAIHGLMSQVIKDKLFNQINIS
# MPN enzymatic domain of JAB1: residues 55-192 of Q92905
# UniProt Q13620: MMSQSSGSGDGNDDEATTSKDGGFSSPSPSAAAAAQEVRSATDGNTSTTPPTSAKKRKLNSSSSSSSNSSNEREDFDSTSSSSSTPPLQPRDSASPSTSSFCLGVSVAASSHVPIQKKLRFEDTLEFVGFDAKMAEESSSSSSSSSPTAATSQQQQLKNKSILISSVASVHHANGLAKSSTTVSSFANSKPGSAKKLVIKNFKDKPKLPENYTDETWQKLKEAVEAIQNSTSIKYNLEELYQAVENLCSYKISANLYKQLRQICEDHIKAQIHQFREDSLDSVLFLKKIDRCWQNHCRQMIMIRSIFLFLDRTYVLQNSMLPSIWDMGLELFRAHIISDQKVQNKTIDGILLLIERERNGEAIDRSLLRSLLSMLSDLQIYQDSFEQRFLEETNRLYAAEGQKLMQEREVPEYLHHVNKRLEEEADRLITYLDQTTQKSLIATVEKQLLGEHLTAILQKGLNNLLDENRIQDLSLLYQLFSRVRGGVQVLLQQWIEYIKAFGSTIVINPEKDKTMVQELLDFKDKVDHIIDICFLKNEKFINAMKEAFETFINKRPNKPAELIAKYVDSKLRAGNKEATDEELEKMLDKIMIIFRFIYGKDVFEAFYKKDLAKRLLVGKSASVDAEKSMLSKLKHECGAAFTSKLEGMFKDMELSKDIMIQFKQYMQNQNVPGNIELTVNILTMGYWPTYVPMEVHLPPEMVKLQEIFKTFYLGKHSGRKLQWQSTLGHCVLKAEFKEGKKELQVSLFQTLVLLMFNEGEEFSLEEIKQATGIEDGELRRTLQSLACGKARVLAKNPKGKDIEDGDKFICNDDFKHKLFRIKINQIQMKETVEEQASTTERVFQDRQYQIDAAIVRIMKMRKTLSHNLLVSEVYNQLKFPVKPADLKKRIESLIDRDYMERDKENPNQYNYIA
# Results are given in words; binding and its absence hold for the method and conditions named. Binding seen in cells or lysates may run through a third protein. Some entries that bind do so weakly or less than the wild type.
# Experiments:
# [1] = biological target: C-Jun activation domain-binding protein-1 (JAB1), FLAG-tagged (UniProt Q92905); assay: co-IP; elution fractions of the FLAG-JAB1 immunopurification from MDA-MB-231 cells, western blotting
# [2] = biological target: MPN enzymatic domain of JAB1 (UniProt Q92905); assay: pull-down; GST fusion protein purified on Glutathione-Sepharose 4B beads mixed with in vitro transcription/translation products (rabbit reticulocyte lysate, TNT system); western blotting; only the target purified
# [3] = biological target: CUL4B (GST pull-down experiments) (UniProt Q13620); assay: as above
substance,measurement,setting,value
"CUL4B (Cullin 4B; endogenous, MDA-MB-231) (from UniProt Q13620 1-913)",binding,[1],binds
CUL4B (GST pull-down experiments) (from UniProt Q13620 1-913),binding,[2],binds
JAB1 (GST pull-down experiments) (from UniProt Q92905 1-334),binding,[3],binds
